Values of other authors in patent US20240358705A1, “COMPOSITIONS AND METHODS FOR TREATMENT OF CANCER” (Board of Supervisors of Louisiana State University and …, priority 2021, published 2024).
At least one compound was matched to its structure with a doubt left.

Tested on: neutrophil
Settings: cited from earlier work

In the case of `CCCCCCCCCCCC1=C(O)C(=O)C=C(O)C1=O` [Embelin], the neutrophil chemotaxis is listed as “lead to neutrophil chemotaxis”.
